Measurements reported in PubChem BioAssay AID1259405 (NCATS, 2018)

- Assay: 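Knock-downs that lift recombinant protein yield in hamster ovary cells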 (primary screen)
- System: Chinese hamster CHO-K1 ovary cells with stable secreted eGFP expression
- Reagents: single siRNA against mouse genes, 0.8 pmol siRNA per well (2 µl of 400 nM stock)
- Time to read-out: 3 days
- Measurement: 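Per-well intracellular GFP measured by laser scanning cytometry, plus viability from ATP luminescence, each relative to plate median of non-targeting control wells, in %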
- Scale: GFP, % of control: higher = more GFP per well, higher productivity; viability (ATP), % of control: higher = more viable cells (more ATP)
- Hit rule: 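Called active when intracellular GFP, relative to negative control, is at or above 120%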
Here is a random part of about 50,000 reagents tested. About 4,000 of all reagents (8%) were called active. 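Mouse siRNA library applied to hamster cells; one well for each siRNA.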 A number with no mark means an inactive call. Reagents against one gene are numbered here.

The first 2 entries, to show the layout:
no.	gene symbol	siRNA no.	GFP, % of control	viability (ATP), % of control
1	Fgf8 (GeneID 14179)	1	145 (active)	109
2	Fgf8 (GeneID 14179)	2	35.2	43.1

The list itself, from the first entry:
no.	gene symbol	siRNA no.	GFP, % of control	viability (ATP), % of control
1	Fgf8 (GeneID 14179)	1	145 (active)	109
2	Fgf8 (GeneID 14179)	2	35.2	43.1
3	Fgf8 (GeneID 14179)	3	95.1	64.8
4	Clec2e (GeneID 232409)	1	48.7	44.4
5	Clec2e (GeneID 232409)	2	70.3	86.6
6	Clec2e (GeneID 232409)	3	79.4	101
7	Fam124b (GeneID 241128)	1	22.4	36
8	Fam124b (GeneID 241128)	2	62.3	73.7
9	Fam124b (GeneID 241128)	3	75.8	76.4
10	Mettl18 (GeneID 69962)	1	92.5	82.3
11	Mettl18 (GeneID 69962)	2	93.7	70.5
12	Mettl18 (GeneID 69962)	3	128 (active)	55.4
13	Ttc24 (GeneID 214191)	1	55.3	39.4
14	Ttc24 (GeneID 214191)	2	46	52.8
15	Ttc24 (GeneID 214191)	3	58.2	62.4
16	Pfdn1 (GeneID 67199)	1	74.1	84.4
17	Pfdn1 (GeneID 67199)	2	47.3	46
18	Pfdn1 (GeneID 67199)	3	82.3	107
19	Atp6v1d (GeneID 73834)	1	113	110
20	Atp6v1d (GeneID 73834)	2	74.8	89.4
21	Atp6v1d (GeneID 73834)	3	47.8	49.2
22	Cdsn (GeneID 386463)	1	42.2	60.1
23	Cdsn (GeneID 386463)	2	77.4	70.1
24	Cdsn (GeneID 386463)	3	80.4	94.9
25	Aida (GeneID 108909)	1	91.2	97
26	Aida (GeneID 108909)	2	44.7	52.5
27	Aida (GeneID 108909)	3	85.8	82.4
28	Tmem70 (GeneID 70397)	1	74.2	82.3
29	Tmem70 (GeneID 70397)	2	105	67.6
30	Tmem70 (GeneID 70397)	3	82.4	80.9
31	Ugt2a1 (GeneID 94215)	1	126 (active)	98.6
32	Ugt2a1 (GeneID 94215)	2	76.2	135
33	Ugt2a1 (GeneID 94215)	3	95.3	95.6
34	Tm4sf5 (GeneID 75604)	1	63.6	51.8
35	Tm4sf5 (GeneID 75604)	2	54.3	72.4
36	Tm4sf5 (GeneID 75604)	3	54.6	78.1
